Test results: paper PMC1188057, “Dynamic assembly, localization and proteolysis of the Bacillus subtilis SMC complex” (BMC Cell Biology, 2005)
These are yes or no findings as the source states them, for the method shown. Some binding calls cover weakened binding; strength is not graded here. For part of these data: Sequences can lack the tags named with a protein. Each block holds one binder with its values, some of them ahead of it.

Tests used:
[1] = target: SMC K37I (Walker A mutant), purified (Bacillus subtilis) (UniProt P51834); assay: atomic force microscopy; SMC adsorbed on mica at about 0.1 ug/ul in 50 Hepes pH 8.0, 300 NaCl, tapping mode in solution; SMC dimers to rosette-like higher-order structures; both purified
[2] = target: SMC protein (Bacillus subtilis), His-tagged, purified (Bacillus subtilis) (UniProt P51834); assay: atomic force microscopy; diluted samples of SMC; SMC dimers to rosette-like higher-order structures; both purified
[3] = target: SMC S1090R (C-motif mutant), purified (Bacillus subtilis) (UniProt P51834); assay: atomic force microscopy; SMC adsorbed on mica at about 0.1 ug/ul in 50 Hepes pH 8.0, 300 NaCl, tapping mode in solution; SMC dimers to rosette-like higher-order structures; both purified
[4] = target: T1, ScpB (Bacillus subtilis), His-tagged, purified (Bacillus subtilis) (UniProt P35155); assay: SEC; analytical gel filtration, Superdex 200 10/300 GL; 50 mM HEPES, 300 mM NaCl, pH 8.0; proteins incubated 30 min; ScpA and ScpB alone or mixed (1:2.5, 1:0.83, 1:10), fractions on SDS-PAGE; both purified
T1 sequence: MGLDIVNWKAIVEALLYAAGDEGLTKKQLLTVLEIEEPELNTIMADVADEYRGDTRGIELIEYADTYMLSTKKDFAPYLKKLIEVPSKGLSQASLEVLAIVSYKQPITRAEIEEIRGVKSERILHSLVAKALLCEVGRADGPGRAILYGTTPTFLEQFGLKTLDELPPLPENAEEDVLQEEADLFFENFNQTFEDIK

[5] = target: T1, ScpB (Bacillus subtilis), His-tagged, purified (Bacillus subtilis); assay: native gel or EMSA; native gel electrophoresis of freshly purified ScpA incubated with ScpB; data not shown; both purified
[6] = target: T1, ScpB (Bacillus subtilis), His-tagged, purified (Bacillus subtilis); assay: sucrose gradient centrifugation; 5 to 20% sucrose gradient, 165,000 x g, 15 h; 1:1 mixture of ScpA and ScpB; data not shown; both purified

binding [1]: binds weakly
B1: SMC K37I (Walker A mutant), purified (protein, UniProt P51834 1-1186)
chain: MFLKRLDVIGFKSFAERISVDFVKGVTAVVGPNGSGISNITDAIRWVLGEQSARSLRGGKMEDIIFAGSDSRKRLNLAEVTLTLDNDDHFLPIDFHEVSVTRRVYRSGESEFLINNQPCRLKDIIDLFMDSGLGKEAFSIISQGKVEEILSSKAEDRRSIFEEAAGVLKYKTRKKKAENKLFETQDNLNRVEDILHELEGQVEPLKIQASIAKDYLEKKKELEHVEIALTAYDIEELHGKWSTLKEKVQMAKEEELAESSAISAKEAKIEDTRDKIQALDESVDELQQVLLVTSEELEKLEGRKEVLKERKKNAVQNQEQLEEAIVQFQQKETVLKEELSKQEAVFETLQAEVKQLRAQVKEKQQALSLHNENVEEKIEQLKSDYFELLNSQASIRNELQLLDDQMSQSAVTLQRLADNNEKHLQERHDISARKAACETEFARIEQEIHSQVGAYRDMQTKYEQKKRQYEKNESALYQAYQYVQQARSKKDMLETMQGDFSGFYQGVKEVLKAKERLGGIRGAVLELISTEQKYETAIEIALGASAQHVVTDDEQSARKAIQYLKQNSFGRATFLPLSVIRDRQLQSRDAETAARHSSFLGVASELVTFDPAYRSVIQNLLGTVLITEDLKGANELAKLLGHRYRIVTLEGDVVNPGGSMTGGAVKKKNNSLLGRSRELEDVTKRLAEMEEKTALLEQEVKTLKHSIQDMEKKLADLRETGEGLRLKQQDVKGQLYELQVAEKNINTHLELYDQEKSALSESDEERKVRKRKLEEELSAVSEKMKQLEEDIDRLTKQKQTQSSTKESLSNELTELKIAAAKKEQACKGEEDNLARLKKELTETELALKEAKEDLSFLTSEMSSSTSGEEKLEEAAKHKLNDKTKTIELIALRRDQRIKLQHGLDTYERELKEMKRLYKQKTTLLKDEEVKLGRMEVELDNLLQYLREEYSLSFEGAKEKYQLETDPEEARKRVKLIKLAIEELGTVNLGSIDEFERVNERYKFLSEQKEDLTEAKNTLFQVIEEMDEEMTKRFNDTFVQIRSHFDQVFRSLFGGGRAELRLTDPNDLLHSGVEIIAQPPGKKLQNLNLLSGGERALTAIALLFSILKVRPVPFCVLDEVEAALDEANVFRFAQYLKKYSSDTQFIVITHRKGTMEEADVLYGVTMQESGVSKVISVKLEETKEFVQ

binding [2]: no binding (condition: diluted samples)
B2: SMC protein (Bacillus subtilis), His-tagged, purified (natural protein, UniProt P51834 1-1186, looked up)
chain: MFLKRLDVIGFKSFAERISVDFVKGVTAVVGPNGSGKSNITDAIRWVLGEQSARSLRGGKMEDIIFAGSDSRKRLNLAEVTLTLDNDDHFLPIDFHEVSVTRRVYRSGESEFLINNQPCRLKDIIDLFMDSGLGKEAFSIISQGKVEEILSSKAEDRRSIFEEAAGVLKYKTRKKKAENKLFETQDNLNRVEDILHELEGQVEPLKIQASIAKDYLEKKKELEHVEIALTAYDIEELHGKWSTLKEKVQMAKEEELAESSAISAKEAKIEDTRDKIQALDESVDELQQVLLVTSEELEKLEGRKEVLKERKKNAVQNQEQLEEAIVQFQQKETVLKEELSKQEAVFETLQAEVKQLRAQVKEKQQALSLHNENVEEKIEQLKSDYFELLNSQASIRNELQLLDDQMSQSAVTLQRLADNNEKHLQERHDISARKAACETEFARIEQEIHSQVGAYRDMQTKYEQKKRQYEKNESALYQAYQYVQQARSKKDMLETMQGDFSGFYQGVKEVLKAKERLGGIRGAVLELISTEQKYETAIEIALGASAQHVVTDDEQSARKAIQYLKQNSFGRATFLPLSVIRDRQLQSRDAETAARHSSFLGVASELVTFDPAYRSVIQNLLGTVLITEDLKGANELAKLLGHRYRIVTLEGDVVNPGGSMTGGAVKKKNNSLLGRSRELEDVTKRLAEMEEKTALLEQEVKTLKHSIQDMEKKLADLRETGEGLRLKQQDVKGQLYELQVAEKNINTHLELYDQEKSALSESDEERKVRKRKLEEELSAVSEKMKQLEEDIDRLTKQKQTQSSTKESLSNELTELKIAAAKKEQACKGEEDNLARLKKELTETELALKEAKEDLSFLTSEMSSSTSGEEKLEEAAKHKLNDKTKTIELIALRRDQRIKLQHGLDTYERELKEMKRLYKQKTTLLKDEEVKLGRMEVELDNLLQYLREEYSLSFEGAKEKYQLETDPEEARKRVKLIKLAIEELGTVNLGSIDEFERVNERYKFLSEQKEDLTEAKNTLFQVIEEMDEEMTKRFNDTFVQIRSHFDQVFRSLFGGGRAELRLTDPNDLLHSGVEIIAQPPGKKLQNLNLLSGGERALTAIALLFSILKVRPVPFCVLDEVEAALDEANVFRFAQYLKKYSSDTQFIVITHRKGTMEEADVLYGVTMQESGVSKVISVKLEETKEFVQ
notes: SMC, Bacillus subtilis; monomeric size 135 kDa as printed; also called wild-type SMC; wild type SMC

binding [3]: no binding
B3: SMC S1090R (C-motif mutant), purified (protein, UniProt P51834 1-1186)
chain: MFLKRLDVIGFKSFAERISVDFVKGVTAVVGPNGSGKSNITDAIRWVLGEQSARSLRGGKMEDIIFAGSDSRKRLNLAEVTLTLDNDDHFLPIDFHEVSVTRRVYRSGESEFLINNQPCRLKDIIDLFMDSGLGKEAFSIISQGKVEEILSSKAEDRRSIFEEAAGVLKYKTRKKKAENKLFETQDNLNRVEDILHELEGQVEPLKIQASIAKDYLEKKKELEHVEIALTAYDIEELHGKWSTLKEKVQMAKEEELAESSAISAKEAKIEDTRDKIQALDESVDELQQVLLVTSEELEKLEGRKEVLKERKKNAVQNQEQLEEAIVQFQQKETVLKEELSKQEAVFETLQAEVKQLRAQVKEKQQALSLHNENVEEKIEQLKSDYFELLNSQASIRNELQLLDDQMSQSAVTLQRLADNNEKHLQERHDISARKAACETEFARIEQEIHSQVGAYRDMQTKYEQKKRQYEKNESALYQAYQYVQQARSKKDMLETMQGDFSGFYQGVKEVLKAKERLGGIRGAVLELISTEQKYETAIEIALGASAQHVVTDDEQSARKAIQYLKQNSFGRATFLPLSVIRDRQLQSRDAETAARHSSFLGVASELVTFDPAYRSVIQNLLGTVLITEDLKGANELAKLLGHRYRIVTLEGDVVNPGGSMTGGAVKKKNNSLLGRSRELEDVTKRLAEMEEKTALLEQEVKTLKHSIQDMEKKLADLRETGEGLRLKQQDVKGQLYELQVAEKNINTHLELYDQEKSALSESDEERKVRKRKLEEELSAVSEKMKQLEEDIDRLTKQKQTQSSTKESLSNELTELKIAAAKKEQACKGEEDNLARLKKELTETELALKEAKEDLSFLTSEMSSSTSGEEKLEEAAKHKLNDKTKTIELIALRRDQRIKLQHGLDTYERELKEMKRLYKQKTTLLKDEEVKLGRMEVELDNLLQYLREEYSLSFEGAKEKYQLETDPEEARKRVKLIKLAIEELGTVNLGSIDEFERVNERYKFLSEQKEDLTEAKNTLFQVIEEMDEEMTKRFNDTFVQIRSHFDQVFRSLFGGGRAELRLTDPNDLLHSGVEIIAQPPGKKLQNLNLLRGGERALTAIALLFSILKVRPVPFCVLDEVEAALDEANVFRFAQYLKKYSSDTQFIVITHRKGTMEEADVLYGVTMQESGVSKVISVKLEETKEFVQ

binding [4]: binds | binding [5]: binds | binding [6]: binds
B4: ScpA (Bacillus subtilis), His-tagged, purified (protein, UniProt P35154 1-251)
chain: MEEYQVKIDTFEGPLDLLLHLINRLEIDIYDIPVAKITEQYLLYVHTMRVLELDIASEYLVMAATLLSIKSRMLLPKQEEELFEDELLEEEDPREELIEKLIEYRKYKDAAKDLKEREEERQKSFTKPPSDLSEYAKEVKQSEQKLSVTVYDMIGAFQKVLKRKKINRPMETTITRQDIPIEARMNEIVHSLKSRGTRINFMDLFPYEQKEHLVVTFLAVLELMKNQLVLIEQEHNFSDIYITGSESIHGA
